Source: publication PMC12239085, “Silver(I) Ions Bridging Oxadiazole-2-thione Derivatives with Mitochondriotropic Agents: A Promising Strategy for Potent Anticancer Chemotherapy” (Inorganic Chemistry, 2025)

What was measured:
[1] = tested on: MCF-7 human breast adenocarcinoma cells (hormone-dependent); assay: SRB antiproliferative assay, MCF-7; type: cell-based; details: ratio normal to cancer cells
Protocol: (§1) Stock solutions of compounds 1a–5a and 1–5 (0.01 M) in DMSO were freshly prepared and subsequently diluted with cell culture media to appropriate concentrations for various biological experiments. These included the assessment of cell viability using the SRB assay, micronucleus testing, cell morphology studies, cell cycle arrest, AO/EB staining, and mitochondrial membrane permeabilization tests. For CT-DNA binding studies, experiments were conducted in DMSO/buffer solutions. All biological experiments were performed in triplicate or more.
(§2) Stock solutions of 1a–5a and 1–5 (0.01 M) were dissolved in DMSO and subsequently diluted with cell culture medium to the desired concentrations (0.5–30 μM). MCF-7, MDA MB-231, and MRC-5 cells were plated in 96-well flat-bottom microplates at various densities: 6000, 8000, and 2000 cells per well, respectively. The cells were incubated for 24 h at 37 °C and then exposed to 1a–5a and 1–5 for 48 h. ,–
(§3) Cytotoxicity was evaluated using the SRB colorimetric assay at λ = 568 nm, with cell survival percentages calculated relative to the untreated control cells. Detailed information on the SRB assay procedure can be found in the previous publication. ,–

[2] = tested on: MDA-MB-231 human breast adenocarcinoma cells (hormone-independent); assay: SRB antiproliferative assay, MDA-MB-231; type: cell-based; details: ratio normal to cancer cells
Protocol: as §1, §2, §3

Row | SMILES | TPI (Therapeutic Potency Index) = IC50 MRC-5/IC50 MCF-7 [1] | TPI = IC50 MCF-10A/IC50 MCF-7 [1] | TPI = IC50 MCF-10A/IC50 MDA-MB-231 [2] | TPI = IC50 MRC-5/IC50 MDA-MB-231 [2]
1 | N.N.[Cl][Pt][Cl] [cisplatin] | 0.2 | 2.0 | 0.4 | 0.04
2 | c1ccc(-c2nnc([S][Ag]([PH](c3ccccc3)(c3ccccc3)c3ccccc3)([PH](c3ccccc3)(c3ccccc3)c3ccccc3)[PH](c3ccccc3)(c3ccccc3)c3ccccc3)o2)cc1 [compound 1] | 1.9 | 5.2 | 2.6 | 0.9
3 | Fc1ccccc1-c1nnc([S][Ag]([PH](c2ccccc2)(c2ccccc2)c2ccccc2)([PH](c2ccccc2)(c2ccccc2)c2ccccc2)[PH](c2ccccc2)(c2ccccc2)c2ccccc2)o1 [compound 2] | 1.2 | 5.6 | 3.6 | 0.8
4 | Fc1ccc(-c2nnc([S][Ag]([PH](c3ccccc3)(c3ccccc3)c3ccccc3)([PH](c3ccccc3)(c3ccccc3)c3ccccc3)[PH](c3ccccc3)(c3ccccc3)c3ccccc3)o2)cc1 [compound 3] | 1.3 | 5.1 | 4.3 | 1.1
5 | Clc1ccccc1-c1nnc([S][Ag]([PH](c2ccccc2)(c2ccccc2)c2ccccc2)([PH](c2ccccc2)(c2ccccc2)c2ccccc2)[PH](c2ccccc2)(c2ccccc2)c2ccccc2)o1 [compound 4] | 1.4 | 5.3 | 3.7 | 1.0
6 | Clc1cccc(-c2nnc([S][Ag]([PH](c3ccccc3)(c3ccccc3)c3ccccc3)([PH](c3ccccc3)(c3ccccc3)c3ccccc3)[PH](c3ccccc3)(c3ccccc3)c3ccccc3)o2)c1 [compound 5] | 1.7 | 9.5 | 4.5 | 0.8
